Assay results published in PMC9068788.
No constants are given. Whether binding was seen depends on the method and setting. Binding seen in cells or lysates may run through a third protein. Some results given as binding are weak or reduced against the parent protein; the word gives no strength.

Amino acid sequences for entries named in this document (tags omitted).
UniProt Q8NFU7: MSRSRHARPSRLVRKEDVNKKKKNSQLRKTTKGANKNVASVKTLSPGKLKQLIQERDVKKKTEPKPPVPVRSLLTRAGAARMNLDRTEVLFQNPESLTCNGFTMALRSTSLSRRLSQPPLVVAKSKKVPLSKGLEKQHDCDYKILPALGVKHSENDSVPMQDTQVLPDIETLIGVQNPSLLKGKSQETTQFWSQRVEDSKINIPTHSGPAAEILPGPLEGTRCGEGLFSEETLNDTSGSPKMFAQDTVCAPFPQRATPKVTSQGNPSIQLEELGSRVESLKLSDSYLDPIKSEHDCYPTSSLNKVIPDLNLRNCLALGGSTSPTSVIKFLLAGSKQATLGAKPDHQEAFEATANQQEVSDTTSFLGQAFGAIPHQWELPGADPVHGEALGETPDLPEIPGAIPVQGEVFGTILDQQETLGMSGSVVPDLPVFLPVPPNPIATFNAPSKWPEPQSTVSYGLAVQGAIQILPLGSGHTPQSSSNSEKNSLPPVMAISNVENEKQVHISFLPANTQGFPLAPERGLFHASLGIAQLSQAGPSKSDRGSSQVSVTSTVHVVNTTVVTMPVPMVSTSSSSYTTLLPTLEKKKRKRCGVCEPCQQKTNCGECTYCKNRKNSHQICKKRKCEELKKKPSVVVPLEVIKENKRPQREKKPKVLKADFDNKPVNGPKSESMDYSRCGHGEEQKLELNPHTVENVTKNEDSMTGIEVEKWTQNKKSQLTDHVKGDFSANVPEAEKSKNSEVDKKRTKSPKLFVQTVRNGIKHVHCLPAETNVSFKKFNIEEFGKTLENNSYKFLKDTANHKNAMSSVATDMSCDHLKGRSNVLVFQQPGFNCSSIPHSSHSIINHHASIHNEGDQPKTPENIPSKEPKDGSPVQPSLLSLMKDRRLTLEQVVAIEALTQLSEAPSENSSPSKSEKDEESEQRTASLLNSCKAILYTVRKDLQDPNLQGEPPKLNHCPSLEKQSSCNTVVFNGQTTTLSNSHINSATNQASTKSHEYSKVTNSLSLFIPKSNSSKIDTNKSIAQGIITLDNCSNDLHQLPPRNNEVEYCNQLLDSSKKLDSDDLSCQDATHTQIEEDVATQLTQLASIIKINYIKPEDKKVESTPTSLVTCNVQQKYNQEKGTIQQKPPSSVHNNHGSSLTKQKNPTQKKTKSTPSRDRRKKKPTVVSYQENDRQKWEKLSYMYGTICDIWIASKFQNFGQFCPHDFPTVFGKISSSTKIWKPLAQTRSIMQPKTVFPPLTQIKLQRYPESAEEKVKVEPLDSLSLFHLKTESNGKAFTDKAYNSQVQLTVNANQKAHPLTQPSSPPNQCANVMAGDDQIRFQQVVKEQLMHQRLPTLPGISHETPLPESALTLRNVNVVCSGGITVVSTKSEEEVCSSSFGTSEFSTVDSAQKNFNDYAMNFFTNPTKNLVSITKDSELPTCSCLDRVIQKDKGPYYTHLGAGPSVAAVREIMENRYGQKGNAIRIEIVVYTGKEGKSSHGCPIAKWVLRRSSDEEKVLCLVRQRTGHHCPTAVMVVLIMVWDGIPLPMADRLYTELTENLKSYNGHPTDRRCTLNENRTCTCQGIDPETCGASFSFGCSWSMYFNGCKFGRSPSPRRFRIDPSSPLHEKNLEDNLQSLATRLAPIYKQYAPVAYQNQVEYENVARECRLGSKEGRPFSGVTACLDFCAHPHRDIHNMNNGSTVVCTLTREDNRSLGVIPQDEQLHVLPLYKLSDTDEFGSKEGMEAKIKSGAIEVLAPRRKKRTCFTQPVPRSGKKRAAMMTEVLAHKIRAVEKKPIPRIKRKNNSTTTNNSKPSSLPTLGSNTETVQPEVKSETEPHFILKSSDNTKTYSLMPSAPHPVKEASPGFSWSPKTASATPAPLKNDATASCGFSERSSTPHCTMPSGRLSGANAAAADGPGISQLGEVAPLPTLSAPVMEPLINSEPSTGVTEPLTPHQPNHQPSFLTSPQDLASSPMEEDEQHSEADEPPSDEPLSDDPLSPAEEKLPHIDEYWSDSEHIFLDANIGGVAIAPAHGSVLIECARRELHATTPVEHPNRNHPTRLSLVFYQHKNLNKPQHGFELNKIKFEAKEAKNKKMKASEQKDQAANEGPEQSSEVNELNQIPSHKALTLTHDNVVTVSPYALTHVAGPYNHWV
UniProt O43151: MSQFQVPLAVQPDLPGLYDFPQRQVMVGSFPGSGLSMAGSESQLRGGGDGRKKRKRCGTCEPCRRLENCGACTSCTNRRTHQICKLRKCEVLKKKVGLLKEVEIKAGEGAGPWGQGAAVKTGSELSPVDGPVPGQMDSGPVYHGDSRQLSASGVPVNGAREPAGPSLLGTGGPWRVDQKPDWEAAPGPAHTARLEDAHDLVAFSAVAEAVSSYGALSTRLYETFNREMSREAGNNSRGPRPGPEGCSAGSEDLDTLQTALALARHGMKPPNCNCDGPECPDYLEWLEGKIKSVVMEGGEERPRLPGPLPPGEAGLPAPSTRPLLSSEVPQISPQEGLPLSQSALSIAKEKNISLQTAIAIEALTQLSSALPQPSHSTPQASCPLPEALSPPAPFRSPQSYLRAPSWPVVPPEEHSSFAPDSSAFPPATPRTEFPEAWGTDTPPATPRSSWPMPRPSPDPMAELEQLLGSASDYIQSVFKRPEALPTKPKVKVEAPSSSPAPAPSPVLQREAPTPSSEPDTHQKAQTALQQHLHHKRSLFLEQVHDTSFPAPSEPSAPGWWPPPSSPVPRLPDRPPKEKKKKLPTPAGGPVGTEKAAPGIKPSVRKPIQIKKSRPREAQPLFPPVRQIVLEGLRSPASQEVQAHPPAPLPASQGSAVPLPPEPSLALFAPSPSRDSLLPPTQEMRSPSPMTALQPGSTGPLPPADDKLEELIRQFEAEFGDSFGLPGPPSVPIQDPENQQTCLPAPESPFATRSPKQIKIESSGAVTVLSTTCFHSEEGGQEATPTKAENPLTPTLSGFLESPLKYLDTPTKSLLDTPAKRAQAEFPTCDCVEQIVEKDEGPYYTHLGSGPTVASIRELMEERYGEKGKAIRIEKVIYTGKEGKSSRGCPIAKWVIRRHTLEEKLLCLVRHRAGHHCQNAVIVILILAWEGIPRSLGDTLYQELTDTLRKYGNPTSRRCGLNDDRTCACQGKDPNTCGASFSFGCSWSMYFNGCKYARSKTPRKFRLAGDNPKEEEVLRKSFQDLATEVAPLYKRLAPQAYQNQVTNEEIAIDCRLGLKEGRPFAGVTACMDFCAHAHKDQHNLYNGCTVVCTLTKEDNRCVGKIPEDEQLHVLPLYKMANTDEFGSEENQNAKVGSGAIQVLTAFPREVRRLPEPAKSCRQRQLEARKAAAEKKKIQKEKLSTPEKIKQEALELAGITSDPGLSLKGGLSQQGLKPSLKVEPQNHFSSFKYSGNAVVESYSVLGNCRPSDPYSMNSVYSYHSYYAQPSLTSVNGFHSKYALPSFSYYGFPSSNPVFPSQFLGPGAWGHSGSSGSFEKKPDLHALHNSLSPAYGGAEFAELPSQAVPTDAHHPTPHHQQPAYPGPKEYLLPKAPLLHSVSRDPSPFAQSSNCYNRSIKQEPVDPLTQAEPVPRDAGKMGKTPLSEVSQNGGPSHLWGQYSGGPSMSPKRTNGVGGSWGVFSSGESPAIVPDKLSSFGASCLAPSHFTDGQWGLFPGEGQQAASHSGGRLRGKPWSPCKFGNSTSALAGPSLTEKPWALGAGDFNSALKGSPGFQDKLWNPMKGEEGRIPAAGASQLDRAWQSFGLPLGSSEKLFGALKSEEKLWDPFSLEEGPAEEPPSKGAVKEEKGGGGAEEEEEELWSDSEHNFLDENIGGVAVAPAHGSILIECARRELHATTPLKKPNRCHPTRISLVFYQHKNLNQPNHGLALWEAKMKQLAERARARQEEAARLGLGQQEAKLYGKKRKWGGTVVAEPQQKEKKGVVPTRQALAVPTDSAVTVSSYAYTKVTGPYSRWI
UniProt Q92908: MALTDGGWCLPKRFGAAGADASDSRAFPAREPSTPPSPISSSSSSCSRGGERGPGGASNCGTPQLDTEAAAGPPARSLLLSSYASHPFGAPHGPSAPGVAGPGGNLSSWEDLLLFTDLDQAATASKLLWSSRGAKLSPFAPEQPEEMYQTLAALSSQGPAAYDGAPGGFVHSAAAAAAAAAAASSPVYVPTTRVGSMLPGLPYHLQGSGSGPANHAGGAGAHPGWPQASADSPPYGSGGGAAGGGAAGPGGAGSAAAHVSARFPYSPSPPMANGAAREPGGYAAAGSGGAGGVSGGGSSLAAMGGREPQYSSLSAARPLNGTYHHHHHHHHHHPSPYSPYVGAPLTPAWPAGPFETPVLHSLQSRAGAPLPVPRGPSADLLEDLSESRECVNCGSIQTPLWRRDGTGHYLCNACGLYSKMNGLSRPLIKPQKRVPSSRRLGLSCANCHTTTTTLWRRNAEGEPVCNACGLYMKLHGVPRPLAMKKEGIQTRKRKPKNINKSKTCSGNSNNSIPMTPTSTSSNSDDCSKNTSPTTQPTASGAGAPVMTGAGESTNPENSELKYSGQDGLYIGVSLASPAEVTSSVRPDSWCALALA

Legend:
Assay in all cases: pull-down; HaloTag Mammalian Pull-Down System (Promega) from HEK293T cells co-transfected with HaloTag-fused TET1, TET2 or TET3 and pCDNA3.2-GATA6, collected 2 days after transfection; immunoblot with anti-GATA6 antibody
[1] = biological target: HaloTag-fused TET1 (UniProt Q8NFU7)
[2] = biological target: HaloTag-fused TET2 (UniProt Q6N021)
[3] = biological target: HaloTag-fused TET3 (UniProt O43151)

Measured: binding

GATA6 (from UniProt Q92908 1-595)
binds: all assays above
